Some of the results follow.

Protein sequences, listed by entry. Tags and fused reporters are not part of them. Lines headed by an entry give the natural chain unless they say otherwise; changes in a name come on top.
UniProt Q8WV07: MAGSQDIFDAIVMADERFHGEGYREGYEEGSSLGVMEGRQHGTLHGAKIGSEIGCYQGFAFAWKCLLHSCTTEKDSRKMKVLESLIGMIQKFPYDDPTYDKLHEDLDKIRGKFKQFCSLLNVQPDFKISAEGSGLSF
UniProt Q5SRI9: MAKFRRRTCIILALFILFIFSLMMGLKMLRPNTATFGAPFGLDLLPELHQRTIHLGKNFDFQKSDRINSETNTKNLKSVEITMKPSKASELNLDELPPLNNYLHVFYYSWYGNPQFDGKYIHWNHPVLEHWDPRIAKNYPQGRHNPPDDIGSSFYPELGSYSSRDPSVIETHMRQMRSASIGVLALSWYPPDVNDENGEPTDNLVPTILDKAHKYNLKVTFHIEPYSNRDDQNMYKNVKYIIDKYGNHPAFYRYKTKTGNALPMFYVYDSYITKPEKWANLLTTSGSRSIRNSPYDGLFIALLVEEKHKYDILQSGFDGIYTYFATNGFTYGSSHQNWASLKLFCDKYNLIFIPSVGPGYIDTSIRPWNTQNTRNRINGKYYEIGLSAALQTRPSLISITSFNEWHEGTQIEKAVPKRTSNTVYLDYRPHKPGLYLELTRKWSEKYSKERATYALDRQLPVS
UniProt Q92585: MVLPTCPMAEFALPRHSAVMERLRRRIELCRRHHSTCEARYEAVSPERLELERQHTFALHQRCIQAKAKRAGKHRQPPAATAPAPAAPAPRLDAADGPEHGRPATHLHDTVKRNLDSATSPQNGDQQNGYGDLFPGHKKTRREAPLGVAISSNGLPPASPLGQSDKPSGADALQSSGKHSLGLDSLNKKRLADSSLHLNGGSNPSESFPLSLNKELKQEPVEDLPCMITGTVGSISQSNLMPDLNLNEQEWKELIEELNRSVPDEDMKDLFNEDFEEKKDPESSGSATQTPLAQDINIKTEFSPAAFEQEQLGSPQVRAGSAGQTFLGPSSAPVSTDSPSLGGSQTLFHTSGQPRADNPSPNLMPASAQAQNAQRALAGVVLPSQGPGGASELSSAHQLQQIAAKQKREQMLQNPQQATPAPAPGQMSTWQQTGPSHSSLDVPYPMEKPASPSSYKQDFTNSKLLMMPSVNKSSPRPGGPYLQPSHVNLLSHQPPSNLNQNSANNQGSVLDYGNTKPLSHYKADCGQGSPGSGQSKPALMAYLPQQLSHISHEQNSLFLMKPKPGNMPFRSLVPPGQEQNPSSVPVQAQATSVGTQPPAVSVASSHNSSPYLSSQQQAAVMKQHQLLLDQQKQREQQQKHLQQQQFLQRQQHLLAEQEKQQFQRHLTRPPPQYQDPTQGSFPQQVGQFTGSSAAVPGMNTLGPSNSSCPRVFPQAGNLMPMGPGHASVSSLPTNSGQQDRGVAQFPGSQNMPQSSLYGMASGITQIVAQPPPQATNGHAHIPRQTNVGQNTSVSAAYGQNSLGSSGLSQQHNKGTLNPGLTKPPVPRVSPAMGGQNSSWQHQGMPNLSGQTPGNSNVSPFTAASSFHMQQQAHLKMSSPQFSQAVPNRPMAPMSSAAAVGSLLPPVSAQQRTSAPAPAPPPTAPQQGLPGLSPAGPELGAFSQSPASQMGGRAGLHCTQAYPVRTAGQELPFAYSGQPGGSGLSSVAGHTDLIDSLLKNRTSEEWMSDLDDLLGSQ
UniProt Q9Y4K4: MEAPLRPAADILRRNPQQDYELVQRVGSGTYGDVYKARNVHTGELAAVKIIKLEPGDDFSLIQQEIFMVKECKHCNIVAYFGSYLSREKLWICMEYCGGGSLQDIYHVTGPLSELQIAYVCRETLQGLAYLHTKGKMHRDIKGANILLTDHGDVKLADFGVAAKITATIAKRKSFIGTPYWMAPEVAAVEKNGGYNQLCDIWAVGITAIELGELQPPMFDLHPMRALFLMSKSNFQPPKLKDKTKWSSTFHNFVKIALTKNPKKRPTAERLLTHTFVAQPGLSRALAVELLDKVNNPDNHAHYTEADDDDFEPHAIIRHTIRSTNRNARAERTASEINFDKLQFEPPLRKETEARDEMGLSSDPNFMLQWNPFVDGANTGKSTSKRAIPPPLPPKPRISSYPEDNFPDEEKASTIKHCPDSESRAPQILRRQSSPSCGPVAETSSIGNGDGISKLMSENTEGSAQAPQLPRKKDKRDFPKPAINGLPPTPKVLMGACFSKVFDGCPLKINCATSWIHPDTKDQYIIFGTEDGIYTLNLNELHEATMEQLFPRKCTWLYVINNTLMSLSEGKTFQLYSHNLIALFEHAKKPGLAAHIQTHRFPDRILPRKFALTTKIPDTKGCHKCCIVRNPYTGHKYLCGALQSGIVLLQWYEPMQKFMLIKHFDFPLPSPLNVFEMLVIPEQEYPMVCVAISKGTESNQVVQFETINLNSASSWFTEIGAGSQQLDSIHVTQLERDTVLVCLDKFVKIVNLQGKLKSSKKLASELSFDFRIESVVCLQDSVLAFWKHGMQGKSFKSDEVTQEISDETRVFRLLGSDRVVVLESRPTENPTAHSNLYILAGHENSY
UniProt P53778: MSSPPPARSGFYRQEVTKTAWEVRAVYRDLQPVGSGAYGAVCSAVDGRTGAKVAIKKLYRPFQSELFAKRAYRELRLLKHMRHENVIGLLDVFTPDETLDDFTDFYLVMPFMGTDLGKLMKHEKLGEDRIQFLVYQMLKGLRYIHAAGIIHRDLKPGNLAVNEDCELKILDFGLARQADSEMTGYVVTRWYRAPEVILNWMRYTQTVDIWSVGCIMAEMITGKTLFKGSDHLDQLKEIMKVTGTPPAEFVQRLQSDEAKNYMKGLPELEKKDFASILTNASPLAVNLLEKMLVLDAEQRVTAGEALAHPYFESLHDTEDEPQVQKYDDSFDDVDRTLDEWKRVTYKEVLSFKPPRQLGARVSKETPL
UniProt Q9Y2E5: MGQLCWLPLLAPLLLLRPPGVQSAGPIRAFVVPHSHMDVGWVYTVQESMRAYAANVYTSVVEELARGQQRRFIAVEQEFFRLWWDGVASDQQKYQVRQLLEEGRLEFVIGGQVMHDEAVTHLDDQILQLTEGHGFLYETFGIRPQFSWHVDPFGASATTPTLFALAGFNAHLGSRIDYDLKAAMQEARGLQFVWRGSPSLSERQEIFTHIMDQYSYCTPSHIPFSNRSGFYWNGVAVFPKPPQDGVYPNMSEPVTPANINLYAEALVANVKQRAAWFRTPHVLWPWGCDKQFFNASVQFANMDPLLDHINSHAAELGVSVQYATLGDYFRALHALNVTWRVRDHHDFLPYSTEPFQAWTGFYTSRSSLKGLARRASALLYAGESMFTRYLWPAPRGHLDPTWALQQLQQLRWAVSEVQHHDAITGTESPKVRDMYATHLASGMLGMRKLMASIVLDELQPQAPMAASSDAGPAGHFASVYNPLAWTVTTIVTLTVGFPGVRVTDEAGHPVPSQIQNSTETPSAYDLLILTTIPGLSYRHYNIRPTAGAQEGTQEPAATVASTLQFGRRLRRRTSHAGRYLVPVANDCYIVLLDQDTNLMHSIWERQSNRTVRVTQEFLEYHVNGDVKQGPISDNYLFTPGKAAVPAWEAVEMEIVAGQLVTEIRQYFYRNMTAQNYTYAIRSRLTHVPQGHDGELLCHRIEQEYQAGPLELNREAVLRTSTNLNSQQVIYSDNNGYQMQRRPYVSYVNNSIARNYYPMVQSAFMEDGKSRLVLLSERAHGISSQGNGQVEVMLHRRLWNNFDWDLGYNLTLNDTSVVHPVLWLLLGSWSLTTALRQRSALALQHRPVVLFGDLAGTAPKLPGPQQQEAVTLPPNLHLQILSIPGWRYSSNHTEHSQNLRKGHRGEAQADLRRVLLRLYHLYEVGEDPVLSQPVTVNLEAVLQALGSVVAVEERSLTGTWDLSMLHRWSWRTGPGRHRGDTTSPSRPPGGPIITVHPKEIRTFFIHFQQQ
UniProt O60337: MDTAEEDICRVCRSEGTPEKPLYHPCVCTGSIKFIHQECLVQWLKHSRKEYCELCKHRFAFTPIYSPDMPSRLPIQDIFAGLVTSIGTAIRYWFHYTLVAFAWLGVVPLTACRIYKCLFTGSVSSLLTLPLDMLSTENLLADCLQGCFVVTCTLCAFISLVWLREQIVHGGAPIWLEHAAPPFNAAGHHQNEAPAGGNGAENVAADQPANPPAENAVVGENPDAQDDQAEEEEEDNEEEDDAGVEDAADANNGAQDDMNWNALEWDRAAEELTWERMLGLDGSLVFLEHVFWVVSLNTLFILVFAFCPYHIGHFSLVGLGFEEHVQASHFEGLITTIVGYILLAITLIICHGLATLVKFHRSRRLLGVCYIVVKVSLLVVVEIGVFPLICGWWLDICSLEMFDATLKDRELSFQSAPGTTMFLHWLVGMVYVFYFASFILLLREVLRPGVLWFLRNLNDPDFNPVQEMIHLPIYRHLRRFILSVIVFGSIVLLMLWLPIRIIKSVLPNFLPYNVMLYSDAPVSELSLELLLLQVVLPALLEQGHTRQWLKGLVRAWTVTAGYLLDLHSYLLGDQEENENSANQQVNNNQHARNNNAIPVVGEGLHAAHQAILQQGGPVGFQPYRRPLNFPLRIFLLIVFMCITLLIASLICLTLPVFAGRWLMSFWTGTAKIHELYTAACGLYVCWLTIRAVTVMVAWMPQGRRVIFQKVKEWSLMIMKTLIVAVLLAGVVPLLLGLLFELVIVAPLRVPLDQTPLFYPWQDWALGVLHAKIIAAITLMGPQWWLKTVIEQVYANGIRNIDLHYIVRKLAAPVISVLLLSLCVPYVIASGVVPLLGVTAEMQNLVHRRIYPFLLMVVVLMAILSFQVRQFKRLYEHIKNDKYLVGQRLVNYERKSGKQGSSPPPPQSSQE
UniProt Q8IWC1: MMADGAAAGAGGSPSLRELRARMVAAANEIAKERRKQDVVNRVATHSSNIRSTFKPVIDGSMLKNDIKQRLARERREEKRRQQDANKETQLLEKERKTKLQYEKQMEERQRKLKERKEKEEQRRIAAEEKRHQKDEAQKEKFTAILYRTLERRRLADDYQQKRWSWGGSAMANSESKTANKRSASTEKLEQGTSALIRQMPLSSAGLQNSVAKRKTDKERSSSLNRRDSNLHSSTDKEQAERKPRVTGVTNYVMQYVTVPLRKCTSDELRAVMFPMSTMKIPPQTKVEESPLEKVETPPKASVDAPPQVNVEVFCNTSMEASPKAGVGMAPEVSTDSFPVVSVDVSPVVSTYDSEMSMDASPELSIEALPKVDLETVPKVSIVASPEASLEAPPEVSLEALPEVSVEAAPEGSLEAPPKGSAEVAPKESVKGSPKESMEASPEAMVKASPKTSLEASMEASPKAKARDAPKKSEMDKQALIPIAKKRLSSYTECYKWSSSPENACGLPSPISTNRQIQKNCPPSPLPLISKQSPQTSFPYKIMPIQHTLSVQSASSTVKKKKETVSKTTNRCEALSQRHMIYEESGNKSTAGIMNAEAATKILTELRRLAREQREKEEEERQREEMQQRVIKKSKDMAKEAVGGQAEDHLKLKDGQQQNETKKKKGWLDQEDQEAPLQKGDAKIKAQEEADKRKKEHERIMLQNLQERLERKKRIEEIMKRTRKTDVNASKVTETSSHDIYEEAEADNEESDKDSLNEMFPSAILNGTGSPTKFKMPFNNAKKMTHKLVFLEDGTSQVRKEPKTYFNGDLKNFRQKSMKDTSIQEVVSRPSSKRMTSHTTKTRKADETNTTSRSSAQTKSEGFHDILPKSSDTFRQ
UniProt O15525: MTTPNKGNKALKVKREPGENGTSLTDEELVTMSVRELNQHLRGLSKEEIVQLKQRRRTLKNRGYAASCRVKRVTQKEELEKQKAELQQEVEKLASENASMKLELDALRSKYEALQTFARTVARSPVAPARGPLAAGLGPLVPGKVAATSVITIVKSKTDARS
UniProt Q9NQ48: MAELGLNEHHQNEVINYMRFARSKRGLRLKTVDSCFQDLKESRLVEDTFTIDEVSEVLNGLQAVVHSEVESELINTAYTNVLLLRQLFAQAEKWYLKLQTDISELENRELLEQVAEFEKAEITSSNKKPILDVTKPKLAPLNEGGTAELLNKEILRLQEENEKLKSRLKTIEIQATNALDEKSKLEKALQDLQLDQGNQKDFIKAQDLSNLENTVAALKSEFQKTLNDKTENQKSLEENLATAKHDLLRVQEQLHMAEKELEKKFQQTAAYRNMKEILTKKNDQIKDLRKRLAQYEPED
UniProt P20645: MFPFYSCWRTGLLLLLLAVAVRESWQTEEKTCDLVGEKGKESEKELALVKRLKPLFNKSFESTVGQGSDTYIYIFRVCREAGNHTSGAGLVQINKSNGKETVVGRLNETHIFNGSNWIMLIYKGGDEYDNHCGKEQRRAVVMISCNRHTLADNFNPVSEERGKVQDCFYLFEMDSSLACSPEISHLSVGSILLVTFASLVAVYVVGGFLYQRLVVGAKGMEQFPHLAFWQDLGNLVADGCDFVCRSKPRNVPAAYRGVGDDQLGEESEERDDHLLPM
UniProt Q13257, whole entry, looked up: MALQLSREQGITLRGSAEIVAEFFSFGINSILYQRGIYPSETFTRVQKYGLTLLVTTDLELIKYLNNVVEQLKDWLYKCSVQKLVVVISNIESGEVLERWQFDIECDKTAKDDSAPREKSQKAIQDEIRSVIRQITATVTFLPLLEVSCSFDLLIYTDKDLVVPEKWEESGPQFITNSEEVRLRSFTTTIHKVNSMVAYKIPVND

Compound in one test: CCn1cc(-c2ccnc3[nH]c(-c4cccc(CN(C)C)c4)cc23)c(-c2ccc(NC(=O)N(C)C)cc2)n1
Nature of the test: log2 fold change, soluble protein after heating vs DMSO (PISA); higher = thermal stabilisation; K562 lysate, 10 uM; active = over 0.2 and 3.5 SD of the protein, either way, in both replicates (recomputed). In a few lines: (§1)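 Thermal stability, expressed as log-two fold change relative to solvent controls, is given from duplicates. Crude K562 extract in PBS pH 7.4 with 1 mM MgCl2, at 1 mg/mL protein, was treated with 10 μM compound for 30 min and heated in aliquots for 3 min across 48°C-58°C. After pooling, adjustment to 0.5% NP-40 at 4°C and centrifugation at 21,000xg for 90 min, supernatant protein was measured by TMTpro 16plex LC-MS/MS with channel sums equalised.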
For the target LUC7L3 (UniProt O95232), the log2 fold change is inactive: -0.047.

With MAP3K5 (UniProt Q99683), the log2 fold change was inactive: -0.022.

As for MACF1, A0A0A6YYJ5, the log2 fold change was inactive: -0.035.

LTO1 (UniProt Q8WV07): the log2 fold change was inactive: 0.086.

Consider MANEA (UniProt Q5SRI9), for which the log2 fold change was active: -0.627.

As for MAPRE3 isoform 2 (UniProt Q9UPY8), the log2 fold change is inactive: -0.075.

Consider LTBP4 (UniProt Q8N2S1), for which the log2 fold change was inactive: -0.074.

As for MANBAL (UniProt Q9NQG1), the log2 fold change is inactive: 0.01.

MAP4K2 (UniProt Q12851): the log2 fold change was inactive: -0.317.

Take MAST2 (UniProt Q6P0Q8): the log2 fold change is inactive: 0.102.

For MAGI3 isoform 1 (UniProt Q5TCQ9), the log2 fold change was inactive: -0.032.

For MAML1 (UniProt Q92585), the log2 fold change is inactive: 0.145.

As for MAP4K5 (UniProt Q9Y4K4), the log2 fold change was inactive: 0.

For MAPK12 (UniProt P53778), the log2 fold change was active: 0.974.

On to MAP7 (UniProt Q14244), for which the log2 fold change is inactive: 0.107.

In the case of MARF1 (UniProt Q9Y4F3), the log2 fold change is inactive: -0.027.

Regarding MAN2B2 (UniProt Q9Y2E5), the log2 fold change was active: 0.648.

With MAP4 (UniProt E7EVA0), the log2 fold change was inactive: -0.024.

As to MARCHF6 (UniProt O60337), the log2 fold change was inactive: -0.023.

As to MACF1 (UniProt E9PLY5), the log2 fold change was inactive: -0.231.

For the target LTBR (UniProt P36941), the log2 fold change was inactive: -0.103.

On to MAP7D3 (UniProt Q8IWC1), for which the log2 fold change is inactive: -0.053.

Regarding MAFG (UniProt O15525), the log2 fold change was inactive: -0.128.

As to MAGED1 isoform 2 (UniProt Q9Y5V3), the log2 fold change was inactive: -0.034.

As for LY6E (UniProt Q16553), the log2 fold change is active: -1.86.

Turning to LZTFL1 (UniProt Q9NQ48), the log2 fold change is inactive: 0.036.

Regarding M6PR (UniProt P20645), the log2 fold change is inactive: 0.014.

As to MAD2L1 (UniProt Q13257), the log2 fold change is inactive: -0.207.

Compound in another test: CN1CCC(CNc2ccc3ncc(-c4cccc(OC(F)(F)F)c4)n3n2)CC1
The test is described as above. In a few lines: as §1
With LUC7L3 (UniProt O95232), the log2 fold change was inactive: 0.034.

Consider MAP3K5 (UniProt Q99683), for which the log2 fold change was inactive: -0.071.

Take MACF1, A0A0A6YYJ5: the log2 fold change is inactive: -0.129.

Regarding LTO1 (UniProt Q8WV07), the log2 fold change was inactive: -0.064.

In the case of MANEA (UniProt Q5SRI9), the log2 fold change is inactive: 0.254.

For the target MAPRE3 isoform 2 (UniProt Q9UPY8), the log2 fold change was inactive: -0.109.

As to LTBP4 (UniProt Q8N2S1), the log2 fold change is inactive: 0.186.

Take MANBAL (UniProt Q9NQG1): the log2 fold change is inactive: 0.008.

In the case of MAP4K2 (UniProt Q12851), the log2 fold change was inactive: 0.105.

For MAST2 (UniProt Q6P0Q8), the log2 fold change was inactive: 0.06.

As for MAGI3 isoform 1 (UniProt Q5TCQ9), the log2 fold change was inactive: 0.022.

Take MAML1 (UniProt Q92585): the log2 fold change is inactive: -0.013.

Consider MAP4K5 (UniProt Q9Y4K4), for which the log2 fold change is inactive: -0.007.

With MAPK12 (UniProt P53778), the log2 fold change is inactive: -0.169.

Take MAP7 (UniProt Q14244): the log2 fold change was inactive: 0.062.

As for MARF1 (UniProt Q9Y4F3), the log2 fold change was inactive: -0.059.

Take MAN2B2 (UniProt Q9Y2E5): the log2 fold change was active: -0.649.

Turning to MAP4 (UniProt E7EVA0), the log2 fold change is inactive: 0.029.

Consider MARCHF6 (UniProt O60337), for which the log2 fold change is inactive: 0.013.

MACF1 (UniProt E9PLY5): the log2 fold change was inactive: 0.213.

For LTBR (UniProt P36941), the log2 fold change is inactive: 0.086.

With MAP7D3 (UniProt Q8IWC1), the log2 fold change is inactive: -0.006.

In the case of MAFG (UniProt O15525), the log2 fold change is inactive: 0.01.

In the case of MAGED1 isoform 2 (UniProt Q9Y5V3), the log2 fold change was inactive: -0.015.

For the target LY6E (UniProt Q16553), the log2 fold change was inactive: 0.533.

Turning to LZTFL1 (UniProt Q9NQ48), the log2 fold change is inactive: -0.018.

As for M6PR (UniProt P20645), the log2 fold change is inactive: 0.018.

In the case of MAD2L1 (UniProt Q13257), the log2 fold change is inactive: 0.079.

Compound in a further test: CN1CCN(CCOc2cc(OC3CCOCC3)c3c(Nc4c(Cl)ccc5c4OCO5)ncnc3c2)CC1 [saracatinib]
The description is as above. In a few lines:
as §1
On to LUC7L3 (UniProt O95232), for which the log2 fold change was inactive: -0.017.

Take MACF1, A0A0A6YYJ5: the log2 fold change was inactive: 0.04.

For the target MAP4K3 (UniProt Q8IVH8), the log2 fold change was inactive: -0.095.

For LTO1 (UniProt Q8WV07), the log2 fold change is inactive: 0.019.

Turning to MANEA (UniProt Q5SRI9), the log2 fold change is inactive: -0.059.

In the case of LTBP4 (UniProt Q8N2S1), the log2 fold change is inactive: 0.032.

Consider MAP4K2 (UniProt Q12851), for which the log2 fold change was inactive: 0.005.

Take MAST2 (UniProt Q6P0Q8): the log2 fold change was inactive: 0.056.

For MAGI3 isoform 1 (UniProt Q5TCQ9), the log2 fold change was inactive: -0.014.

With MAML1 (UniProt Q92585), the log2 fold change is inactive: -0.013.

For the target MAP4 isoform 5 (UniProt P27816), the log2 fold change was inactive: 0.041.

Regarding MAP4K5 (UniProt Q9Y4K4), the log2 fold change was inactive: 0.01.

With MAPK12 (UniProt P53778), the log2 fold change was inactive: 0.023.

MAP7 (UniProt Q14244): the log2 fold change was inactive: 0.003.

As to MARF1 (UniProt Q9Y4F3), the log2 fold change is inactive: 0.027.

For the target MAN2B2 (UniProt Q9Y2E5), the log2 fold change is inactive: -0.053.

For the target MAP4 (UniProt E7EVA0), the log2 fold change is inactive: 0.024.

On to MARCHF6 (UniProt O60337), for which the log2 fold change is inactive: -0.13.

For the target MAP4K4 isoform 6 (UniProt O95819), the log2 fold change is inactive: 0.006.

Regarding LZTS2 (UniProt Q9BRK4), the log2 fold change was inactive: 0.081.

Regarding MAP7D3 (UniProt Q8IWC1), the log2 fold change is inactive: -0.019.

With MAFG (UniProt O15525), the log2 fold change was inactive: 0.15.

For LZTFL1 (UniProt Q9NQ48), the log2 fold change is inactive: 0.

In the case of M6PR (UniProt P20645), the log2 fold change was inactive: 0.007.

MAD2L1 (UniProt Q13257): the log2 fold change was inactive: 0.007.

The record behind these values is the supplement of paper PMC10849652.
